Data taken from patent US10087187B2, “Imidazopyridazine derivatives as PI3KB inhibitors” (Janssen Pharmaceutica NV, priority 2014, dated 2018).
The match of structure and compound is tentative.

Chains of the proteins cited; added tags and fusions are not shown. Lines headed by an entry give the natural chain unless they say otherwise; changes in a name come on top.
UniProt P42336, whole entry: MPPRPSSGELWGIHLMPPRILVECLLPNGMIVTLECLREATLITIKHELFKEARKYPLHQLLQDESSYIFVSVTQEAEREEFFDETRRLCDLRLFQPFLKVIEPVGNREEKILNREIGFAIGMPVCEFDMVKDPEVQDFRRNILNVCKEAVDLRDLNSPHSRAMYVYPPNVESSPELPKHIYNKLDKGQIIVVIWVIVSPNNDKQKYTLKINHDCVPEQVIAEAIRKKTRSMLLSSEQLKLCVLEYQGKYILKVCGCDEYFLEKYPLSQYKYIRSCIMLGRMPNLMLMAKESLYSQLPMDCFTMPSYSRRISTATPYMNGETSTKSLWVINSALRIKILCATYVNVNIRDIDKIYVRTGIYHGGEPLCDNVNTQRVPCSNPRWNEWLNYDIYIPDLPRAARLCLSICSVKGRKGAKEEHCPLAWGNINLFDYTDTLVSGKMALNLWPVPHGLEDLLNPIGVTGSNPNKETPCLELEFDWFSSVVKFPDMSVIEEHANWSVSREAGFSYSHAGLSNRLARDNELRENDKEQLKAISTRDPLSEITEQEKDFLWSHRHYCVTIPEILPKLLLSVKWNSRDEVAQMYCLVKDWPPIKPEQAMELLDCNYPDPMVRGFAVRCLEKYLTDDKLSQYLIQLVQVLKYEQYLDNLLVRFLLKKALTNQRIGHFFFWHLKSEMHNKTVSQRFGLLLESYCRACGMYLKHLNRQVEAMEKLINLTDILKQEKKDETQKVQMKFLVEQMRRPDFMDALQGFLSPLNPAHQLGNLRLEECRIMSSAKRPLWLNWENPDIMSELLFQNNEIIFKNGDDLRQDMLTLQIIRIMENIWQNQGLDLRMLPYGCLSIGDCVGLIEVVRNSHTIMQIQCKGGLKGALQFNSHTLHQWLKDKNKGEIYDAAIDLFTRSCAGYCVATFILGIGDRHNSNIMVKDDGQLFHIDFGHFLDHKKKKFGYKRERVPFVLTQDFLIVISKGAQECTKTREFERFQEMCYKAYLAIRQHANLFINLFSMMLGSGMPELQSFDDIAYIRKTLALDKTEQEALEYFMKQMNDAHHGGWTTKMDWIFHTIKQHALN
UniProt P42338, whole entry: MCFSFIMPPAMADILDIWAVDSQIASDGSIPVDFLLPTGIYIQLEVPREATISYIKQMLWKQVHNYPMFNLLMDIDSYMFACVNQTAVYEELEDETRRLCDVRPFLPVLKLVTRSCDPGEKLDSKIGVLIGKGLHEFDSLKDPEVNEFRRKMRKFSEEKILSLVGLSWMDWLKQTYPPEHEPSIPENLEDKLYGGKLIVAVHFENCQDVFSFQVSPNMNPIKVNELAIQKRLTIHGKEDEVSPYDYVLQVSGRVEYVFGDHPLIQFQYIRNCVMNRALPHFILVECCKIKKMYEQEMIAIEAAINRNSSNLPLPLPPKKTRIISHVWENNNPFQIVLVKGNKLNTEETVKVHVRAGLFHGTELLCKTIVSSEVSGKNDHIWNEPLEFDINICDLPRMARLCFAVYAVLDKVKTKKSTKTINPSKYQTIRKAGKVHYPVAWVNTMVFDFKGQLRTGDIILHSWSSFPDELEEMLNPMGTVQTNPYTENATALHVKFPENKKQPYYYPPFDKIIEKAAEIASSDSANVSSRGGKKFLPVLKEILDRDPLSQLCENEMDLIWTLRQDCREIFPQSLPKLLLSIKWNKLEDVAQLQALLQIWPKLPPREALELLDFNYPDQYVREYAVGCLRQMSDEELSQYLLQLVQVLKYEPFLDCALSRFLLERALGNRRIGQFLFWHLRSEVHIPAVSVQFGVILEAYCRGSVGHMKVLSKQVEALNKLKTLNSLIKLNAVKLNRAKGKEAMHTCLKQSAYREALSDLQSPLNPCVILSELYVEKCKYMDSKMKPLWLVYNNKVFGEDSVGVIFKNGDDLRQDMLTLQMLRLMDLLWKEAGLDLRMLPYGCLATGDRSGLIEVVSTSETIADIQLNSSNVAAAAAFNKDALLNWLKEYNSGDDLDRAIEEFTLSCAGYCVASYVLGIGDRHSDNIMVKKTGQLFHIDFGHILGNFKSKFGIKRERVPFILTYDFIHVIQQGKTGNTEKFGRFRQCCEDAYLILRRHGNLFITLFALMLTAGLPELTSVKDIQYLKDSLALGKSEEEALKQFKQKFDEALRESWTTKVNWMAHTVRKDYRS
UniProt O00329, whole entry: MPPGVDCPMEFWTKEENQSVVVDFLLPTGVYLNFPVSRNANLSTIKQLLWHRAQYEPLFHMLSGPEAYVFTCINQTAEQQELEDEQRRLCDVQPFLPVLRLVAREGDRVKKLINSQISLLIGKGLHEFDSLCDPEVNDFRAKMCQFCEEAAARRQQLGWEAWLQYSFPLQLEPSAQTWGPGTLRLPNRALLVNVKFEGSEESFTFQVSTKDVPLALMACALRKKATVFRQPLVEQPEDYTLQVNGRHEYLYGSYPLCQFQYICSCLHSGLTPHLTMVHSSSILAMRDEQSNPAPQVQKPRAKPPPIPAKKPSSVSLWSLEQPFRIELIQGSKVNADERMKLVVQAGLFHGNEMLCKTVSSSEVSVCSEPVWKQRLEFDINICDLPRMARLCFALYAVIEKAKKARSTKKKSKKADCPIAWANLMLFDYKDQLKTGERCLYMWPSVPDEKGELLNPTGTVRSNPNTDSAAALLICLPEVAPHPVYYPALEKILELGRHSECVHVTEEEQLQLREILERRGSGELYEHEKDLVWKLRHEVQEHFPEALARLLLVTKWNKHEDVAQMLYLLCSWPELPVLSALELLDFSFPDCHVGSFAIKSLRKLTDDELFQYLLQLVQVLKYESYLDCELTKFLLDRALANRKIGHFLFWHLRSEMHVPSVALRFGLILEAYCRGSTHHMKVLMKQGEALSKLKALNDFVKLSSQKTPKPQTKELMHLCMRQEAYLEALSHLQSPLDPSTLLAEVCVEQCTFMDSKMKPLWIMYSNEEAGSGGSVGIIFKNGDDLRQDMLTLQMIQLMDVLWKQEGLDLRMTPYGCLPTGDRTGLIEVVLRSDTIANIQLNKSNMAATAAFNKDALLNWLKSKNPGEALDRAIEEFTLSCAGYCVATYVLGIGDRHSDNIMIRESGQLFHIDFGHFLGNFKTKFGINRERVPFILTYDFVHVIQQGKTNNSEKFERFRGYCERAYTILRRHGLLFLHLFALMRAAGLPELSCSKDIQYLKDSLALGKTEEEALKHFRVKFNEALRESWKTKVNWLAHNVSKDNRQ
UniProt P48736, whole entry: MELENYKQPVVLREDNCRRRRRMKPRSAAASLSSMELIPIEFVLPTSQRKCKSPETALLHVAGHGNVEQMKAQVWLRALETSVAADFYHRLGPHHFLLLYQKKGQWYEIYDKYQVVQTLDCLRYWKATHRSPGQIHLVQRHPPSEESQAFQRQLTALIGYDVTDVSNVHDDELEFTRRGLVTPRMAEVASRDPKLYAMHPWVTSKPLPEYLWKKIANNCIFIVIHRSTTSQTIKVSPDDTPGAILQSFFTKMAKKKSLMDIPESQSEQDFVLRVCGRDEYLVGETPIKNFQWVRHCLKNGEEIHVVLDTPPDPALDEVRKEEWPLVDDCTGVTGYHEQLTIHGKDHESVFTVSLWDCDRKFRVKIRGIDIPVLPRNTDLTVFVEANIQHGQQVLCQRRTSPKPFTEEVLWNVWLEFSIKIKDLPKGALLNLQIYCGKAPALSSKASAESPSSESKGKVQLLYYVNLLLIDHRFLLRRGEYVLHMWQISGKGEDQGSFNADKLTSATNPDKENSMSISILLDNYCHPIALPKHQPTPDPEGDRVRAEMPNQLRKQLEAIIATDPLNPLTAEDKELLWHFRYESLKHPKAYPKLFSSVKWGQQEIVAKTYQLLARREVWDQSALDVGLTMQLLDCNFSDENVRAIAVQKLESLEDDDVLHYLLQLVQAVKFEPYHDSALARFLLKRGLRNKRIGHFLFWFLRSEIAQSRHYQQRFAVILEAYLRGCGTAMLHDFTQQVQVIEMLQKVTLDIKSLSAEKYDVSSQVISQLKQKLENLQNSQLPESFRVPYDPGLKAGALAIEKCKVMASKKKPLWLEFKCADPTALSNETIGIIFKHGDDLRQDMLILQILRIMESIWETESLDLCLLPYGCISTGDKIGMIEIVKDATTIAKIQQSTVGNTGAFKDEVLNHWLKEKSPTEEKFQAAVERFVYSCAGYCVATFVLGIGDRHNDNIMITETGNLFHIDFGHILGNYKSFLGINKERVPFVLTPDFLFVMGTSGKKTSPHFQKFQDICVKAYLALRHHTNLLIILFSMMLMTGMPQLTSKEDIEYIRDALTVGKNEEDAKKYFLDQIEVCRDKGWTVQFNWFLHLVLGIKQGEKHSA

What was measured:
[1] = system: Akt phosphorylated at Ser473 in PC-3 cells; assay: Cellular assay: phosphorylation of Akt (Ser473) in PC-3 cells, MSD ELISA; settings: read-out: IC50 pAkt_S473, 60 min incubation with compound, tested form: 1.9 HCl 0.89 H2O
PIK3Cα_h = PIK3Cα_h (Homo sapiens (Human), UniProt P42336); assay: KINOMEscan enzyme binding assay, PIK3Cα; settings: read-out: Kd PIK3Cα_h, DiscoveRx, tested form: 1.9 HCl 0.89 H2O
MTOR_h = MTOR_h (Homo sapiens (Human), UniProt P42345); assay: KINOMEscan enzyme binding assay, MTOR; settings: read-out: Kd MTOR_h, DiscoveRx, tested form: 1.9 HCl 0.89 H2O
PIK3Cβ_h = PIK3Cβ_h (Homo sapiens (Human), UniProt P42338); assay: KINOMEscan enzyme binding assay, PIK3Cβ; settings: read-out: Kd PIK3Cβ_h, DiscoveRx, tested form: 1.9 HCl 0.89 H2O
PIK3Cδ_h = PIK3Cδ_h (Homo sapiens (Human), UniProt O00329); assay: KINOMEscan enzyme binding assay, PIK3Cδ; settings: read-out: Kd PIK3Cδ_h, DiscoveRx, tested form: 1.9 HCl 0.89 H2O
[2] = system: Akt phosphorylated at Thr308 in PC-3 cells; assay: Cellular assay: phosphorylation of Akt (Thr308) in PC-3 cells, MSD ELISA; settings: read-out: IC50 pAkt_Thr308, 60 min incubation with compound, tested form: 1.9 HCl 0.89 H2O
PIK3Cγ_h = PIK3Cγ_h (Homo sapiens (Human), UniProt P48736); assay: KINOMEscan enzyme binding assay, PIK3Cγ; settings: read-out: Kd PIK3Cγ_h, DiscoveRx, tested form: 1.9 HCl 0.89 H2O

Cc1c(Cc2c(COC(=O)C3(N)CC3)nc3c(N)cc(N4CCOCC4)nn23)cccc1C(F)(F)F
IC50 [1]: 159 nM | Kd (PIK3Cα_h): 22200 nM | Kd (MTOR_h): > 28200 nM | Kd (PIK3Cβ_h): 2.1 nM | Kd (PIK3Cδ_h): 309 nM | IC50 [2]: 81 nM | Kd (PIK3Cγ_h): > 30200 nM
